Source: paper PMC3046128, “Systematic Two-Hybrid and Comparative Proteomic Analyses Reveal Novel Yeast Pre-mRNA Splicing Factors Connected to Prp19” (PLoS ONE, 2011)
No constants are given. Whether binding was seen depends on the method and setting. For some of these results: Binding seen in cells or lysates may run through a third protein. Some entries that bind do so weakly or less than the wild type. Where a sequence is shown, tags or fusion partners need not be part of it.

What was measured:
[1] = molecular target: T1, S. cerevisiae Prp19 amino acids 146–503 fused to the Gal4 DNA-binding domain (S. cerevisiae) (UniProt P32523); test: two-hybrid; genome-wide screen in duplicate; bait ScPrp19(146–503) fused to the Gal4 DNA-binding domain against an array of ~6000 yeast strains each expressing a S. cerevisiae ORF fused to the Gal4 activation domain
T1 sequence: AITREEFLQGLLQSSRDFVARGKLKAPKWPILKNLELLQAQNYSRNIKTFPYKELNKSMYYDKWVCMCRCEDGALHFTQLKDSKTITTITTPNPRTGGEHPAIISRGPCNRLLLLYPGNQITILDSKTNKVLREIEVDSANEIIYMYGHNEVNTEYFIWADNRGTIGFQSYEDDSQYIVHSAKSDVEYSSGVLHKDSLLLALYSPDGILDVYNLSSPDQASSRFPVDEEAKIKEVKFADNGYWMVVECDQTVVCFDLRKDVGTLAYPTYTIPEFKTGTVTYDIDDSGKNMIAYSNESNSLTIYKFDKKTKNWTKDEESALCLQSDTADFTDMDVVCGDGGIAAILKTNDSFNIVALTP

[2] = molecular target: T2, His6-ScPrp19(144–503) (S. cerevisiae, UniProt P32523 144-503); test: pull-down; His6-Prp19(144–503) on Ni-NTA beads mixed 1 hr at 4°C with S. cerevisiae protein lysates expressing GFP-tagged proteins; washed with bead binding buffer with 5 mM imidazole; anti-GFP immunoblot; only the target purified
T2 construct: Prp19, S. cerevisiae, amino acids 144–503; also called His6-Prp19(144–503); ScPrp19 WD40 domain; source: E. coli BL21 (pET15b), purified (Ni-NTA agarose)
T2 sequence (looked up): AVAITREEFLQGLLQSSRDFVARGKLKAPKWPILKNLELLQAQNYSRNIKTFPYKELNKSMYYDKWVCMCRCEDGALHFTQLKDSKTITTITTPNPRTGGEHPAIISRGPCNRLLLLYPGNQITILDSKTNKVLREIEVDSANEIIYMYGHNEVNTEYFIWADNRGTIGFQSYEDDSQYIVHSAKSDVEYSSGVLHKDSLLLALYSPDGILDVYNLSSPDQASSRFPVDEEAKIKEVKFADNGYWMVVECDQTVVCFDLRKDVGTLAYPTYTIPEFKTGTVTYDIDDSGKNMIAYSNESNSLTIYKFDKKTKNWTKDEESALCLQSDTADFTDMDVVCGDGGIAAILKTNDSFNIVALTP

B1: S. cerevisiae Cwc2 ORF fused to the Gal4 activation domain (protein, UniProt Q12046 1-339)
chain: MTSWRDKSAKVQVKESELPSSIPAQTGLTFNIWYNKWSQGFAGNTRFVSPFALQPQLHSGKTRGDNDGQLFFCLFFAKGMCCLGPKCEYLHHIPDEEDIGKLALRTEVLDCFGREKFADYREDMGGIGSFRKKNKTLYVGGIDGALNSKHLKPAQIESRIRFVFSRLGDIDRIRYVESKNCGFVKFKYQANAEFAKEAMSNQTLLLPSDKEWDDRREGTGLLVKWANEDPDPAAQKRLQEELKLESLNMMVHLINNNTNSAGTEVNNKNNERLDRTFPEASVDNVKKRLLPLDNGMESDDFIEKLKKVKKNISRENISSKPSVGKLGGPLLDYLSSDED
[1]
  binding: binds

B2: Prp17-GFP (S. cerevisiae) (protein, UniProt P40968 1-455)
chain: MGLVDGYDTSSDSDLNFDEGKSVHEKKNGNLHEDTSYEPSSNNIHKRKSHFTKSELKRRRKTRKGDGPWGSWSSSDDETSQASETQKEDQDIFVHALAEDNLDSEQIEVEEVSHFYGKSEKDYQGRGYLYPPNDVDVDLREERISFRCYLPKKVIRNYPGHPEGTTALKFLPKTGHLILSGGNDHTIKIWDFYHDYECLRDFQGHNKPIKALRFTEDCQSFLSSSFDRSVKIWDTETGKVKTRLHLNSTPADVESRPTNPHEFIVGLSNSKILHYDDRVSENQGLVQTYDHHLSSILALKYFPDGSKFISSSEDKTVRIWENQINVPIKQISDTAQHSMPFLNVHPSQNYFCAQSMDNRIYSFSLKPKYKRHPKKIFKGHSSAGYGISLAFSGDGRYICSGDSKSRLFTWDWNTSRLLNNIKIPGNKPITQVDWHPQETSKVICSGAAGKIYVCD
[2]
  binding: binds

B3: S. cerevisiae Prp17/Cdc40 ORF fused to the Gal4 activation domain (protein, UniProt P40968 1-455)
chain: B2 chain
[1]
  binding: binds

B4: S. cerevisiae Urn1 ORF fused to the Gal4 activation domain (protein, UniProt Q06525 1-465)
chain: MRGEWQEFKTPAGKKYYYNKNTKQSRWEKPNLKKGSNLESNAKESQTERKPTFSLELVNGWHLIIYNDGTKLYFNDDSKEFKNDISQEDDSRCRSLIESLDKEKLVLLIGVARGYTMREEDIDKILESCNEEIHLFKRNQDEVERKDEISEEAGDVKSPLQESHTGLVSGYGSSSGEEDEEEDEEEDEENEEQIVNQDISIIDDLNRIDTDDIDERNIFFELFDRYKLDKFSTWSLQSKKIENDPDFYKIRDDTVRESLFEEWCGERSGNATAEESDSEDNSEDDSEVLEPTKYHYLAQIVANAGTIAPDTIPQDIRKQQKALYKAYKIKEYIPSKRDQDKFVSQLLFYYKTFDLEQRKEIFCDCLRDHERDFTGAVESLRQDKELIDRWQTLLKAPADSSSIEDILLSIEHRCCVSPIVVTEPRYYVVGILEKTVVWVRWLAAEVGPSSRFTPVGAGNEPINPE
[1]
  binding: binds

B5: S. cerevisiae Mih1 ORF fused to the Gal4 activation domain (protein, UniProt P23748 1-554)
chain: MNNIFHGTEDECANEDVLSFQKISLKSPFGKKKNIFRNVQTFFKSKSKHSNVDDDLINKENLAFDKSPLLTNHRSKEIDGPSPNIKQLGHRDELDENENENDDIVLSMHFASQTLQSPTRNSSRRSLTNNRDNDLLSRIKYPGSPQRSSSFSRSRSLSRKPSMNSSSNSSRRVQRQDGKIPRSSRKSSQKFSNITQNTLNFTSASSSPLAPNSVGVKCFESCLAKTQIPYYYDDRNSNDFFPRISPETLKNILQNNMCESFYNSCRIIDCRFEYEYTGGHIINSVNIHSRDELEYEFIHKVLHSDTSNNNTLPTLLIIHCEFSSHRGPSLASHLRNCDRIINQDHYPKLFYPDILILDGGYKAVFDNFPELCYPRQYVGMNSQENLLNCEQEMDKFRRESKRFATKNNSFRKLASPSNPNFFYRDSHQSSTTMASSALSFRFEPPPKLSLNHRRVSSGSSLNSSESTGDENFFPILSKSSMSSNSNLSTSHMLLMDGLDTPSYFSFEDERGNHQQVSGDEEQDGDFTFVGSDREDLPRPARRSLFPSLETEDKK
[1]
  binding: binds

B6: S. cerevisiae YOR314w ORF fused to the Gal4 activation domain (protein, UniProt Q12506 1-109)
chain: MTMIRFCGARQSAIISNASDAAAGTNKKRILNPLESLCLNDRIDEHRCKEVQLSSLRSLLYAMILNRTIGSETGVFSFLLFSFRYFGEERDLFYCFFSVFLLNITYLLD
[1]
  binding: binds

B7: S. cerevisiae Uba3 ORF fused to the Gal4 activation domain (protein, UniProt Q99344 1-299)
chain: MDCKILVLGAGGLGCEILKNLTMLSFVKQVHIVDIDTIELTNLNRQFLFCDKDIGKPKAQVAAQYVNTRFPQLEVVAHVQDLTTLPPSFYKDFQFIISGLDAIEPRRFINETLVKLTLESNYEICIPFIDGGTEGLKGHVKTIIPGITACWECSIDTLPSQQDTVPMCTIANNPRCIEHVVEYVSTIQYPDLNIESTADMEFLLEKCCERAAQFSISTEKLSTSFILGIIKSIIPSVSTTNAMVAATCCTQMVKIYNDLIDLENGNNFTLINCSEGCFMYSFKFERLPDCTVCSNSNSN
[1]
  binding: binds

B8: S. cerevisiae YPL257w ORF fused to the Gal4 activation domain (protein, UniProt Q08974 1-193)
chain: MTAHANERISDVSPSARGSSSESKYDKLCRVLFFIAITKSSFTPEHILYKHSIFTDKPILADIVTFMYAAFVSIGWFLIWGERAYRTQEMGQPPMYSNINYHLLSFKKRHPKKFTCALWLVFFLAYTVLTVLIWLVQLIFRKGNVFQMLLQLIILDIAIALVNVAIAFTFEIYLSQKAAIEIRDEGLNNLDTA
[1]
  binding: binds

B9: S. cerevisiae Ufd4 ORF fused to the Gal4 activation domain (protein, UniProt P33202 1-1483)
chain: MSENNSHNLDEHESHSENSDYMMDTQVEDDYDEDGHVQGEYSYYPDEDEDEHMLSSVGSFEADDGEDDDNDYHHEDDSGLLYGYHRTQNGSDEDRNEEEDGLERSHDNNEFGSNPLHLPDILETFAQRLEQRRQTSEGLGQHPVGRTLPEILSMIGGRMERSAESSARNERISKLIENTGNASEDPYIAMESLKELSENILMMNQMVVDRIIPMETLIGNIAAILSDKILREELELQMQACRCMYNLFEVCPESISIAVDEHVIPILQGKLVEISYIDLAEQVLETVEYISRVHGRDILKTGQLSIYVQFFDFLTIHAQRKAIAIVSNACSSIRTDDFKTIVEVLPTLKPIFSNATDQPILTRLVNAMYGICGALHGVDKFETLFSLDLIERIVQLVSIQDTPLENKLKCLDILTVLAMSSDVLSRELREKTDIVDMATRSFQHYSKSPNAGLHETLIYVPNSLLISISRFIVVLFPPEDERILSADKYTGNSDRGVISNQEKFDSLVQCLIPILVEIYTNAADFDVRRYVLIALLRVVSCINNSTAKAINDQLIKLIGSILAQKETASNANGTYSSEAGTLLVGGLSLLDLICKKFSELFFPSIKREGIFDLVKDLSVDFNNIDLKEDGNENISLSDEEGDLHSSIEECDEGDEEYDYEFTDMEIPDSVKPKKISIHIFRTLSLAYIKNKGVNLVNRVLSQMNVEQEAITEELHQIEGVVSILENPSTPDKTEEDWKGIWSVLKKCIFHEDFDVSGFEFTSTGLASSITKRITSSTVSHFILAKSFLEVFEDCIDRFLEILQSALTRLENFSIVDCGLHDGGGVSSLAKEIKIKLVYDGDASKDNIGTDLSSTIVSVHCIASFTSLNEFLRHRMVRMRFLNSLIPNLTSSSTEADREEEENCLDHMRKKNFDFFYDNEKVDMESTVFGVIFNTFVRRNRDLKTLWDDTHTIKFCKSLEGNNRESEAAEEANEGKKLRDFYKKREFAQVDTGSSADILTLLDFLHSCGVKSDSFINSKLSAKLARQLDEPLVVASGALPDWSLFLTRRFPFLFPFDTRMLFLQCTSFGYGRLIQLWKNKSKGSKDLRNDEALQQLGRITRRKLRISRKTIFATGLKILSKYGSSPDVLEIEYQEEAGTGLGPTLEFYSVVSKYFARKSLNMWRCNSYSYRSEMDVDTTDDYITTLLFPEPLNPFSNNEKVIELFGYLGTFVARSLLDNRILDFRFSKVFFELLHRMSTPNVTTVPSDVETCLLMIELVDPLLAKSLKYIVANKDDNMTLESLSLTFTVPGNDDIELIPGGCNKSLNSSNVEEYIHGVIDQILGKGIEKQLKAFIEGFSKVFSYERMLILFPDELVDIFGRVEEDWSMATLYTNLNAEHGYTMDSSIIHDFISIISAFGKHERRLFLQFLTGSPKLPIGGFKSLNPKFTVVLKHAEDGLTADEYLPSVMTCANYLKLPKYTSKDIMRSRLCQAIEEGAGAFLLS
[1]
  binding: binds

B10: Cwc2-GFP (S. cerevisiae) (protein, UniProt Q12046 1-339)
chain: B1 chain
[2]
  binding: binds
